# Patent publication US20050255501
# Molecular target: p53 (Homo sapiens) (UniProt P04637)
# Experiment: binding assay
# Details: ChIP-GIS ditag cluster (5 unique ditags) in HCT116 cells after 5-FU; motif within 153 bp peak region; putative site; protein in cells
sequence,measurement,value
AGACAAGCCCGGGCAAGGCC (double strand) [novel cluster p53 motif near p21],binding result,binds

# For at least one entry, the source does not settle the construct or the ends of the probe. Where cells or extracts were used, other partners may take part.
